Laboratory results taken from article doi:10.1101/2023.05.24.542135.
No constants are given. Whether binding was seen depends on the method and setting. In cells and extracts the contact can be indirect. A yes stands for co-enrichment or nearness to the bait. Other partners may have been found.

The chains behind the UniProt entries cited, without tags or fusion partners. Residues count along the entry.
UniProt Q2TV84: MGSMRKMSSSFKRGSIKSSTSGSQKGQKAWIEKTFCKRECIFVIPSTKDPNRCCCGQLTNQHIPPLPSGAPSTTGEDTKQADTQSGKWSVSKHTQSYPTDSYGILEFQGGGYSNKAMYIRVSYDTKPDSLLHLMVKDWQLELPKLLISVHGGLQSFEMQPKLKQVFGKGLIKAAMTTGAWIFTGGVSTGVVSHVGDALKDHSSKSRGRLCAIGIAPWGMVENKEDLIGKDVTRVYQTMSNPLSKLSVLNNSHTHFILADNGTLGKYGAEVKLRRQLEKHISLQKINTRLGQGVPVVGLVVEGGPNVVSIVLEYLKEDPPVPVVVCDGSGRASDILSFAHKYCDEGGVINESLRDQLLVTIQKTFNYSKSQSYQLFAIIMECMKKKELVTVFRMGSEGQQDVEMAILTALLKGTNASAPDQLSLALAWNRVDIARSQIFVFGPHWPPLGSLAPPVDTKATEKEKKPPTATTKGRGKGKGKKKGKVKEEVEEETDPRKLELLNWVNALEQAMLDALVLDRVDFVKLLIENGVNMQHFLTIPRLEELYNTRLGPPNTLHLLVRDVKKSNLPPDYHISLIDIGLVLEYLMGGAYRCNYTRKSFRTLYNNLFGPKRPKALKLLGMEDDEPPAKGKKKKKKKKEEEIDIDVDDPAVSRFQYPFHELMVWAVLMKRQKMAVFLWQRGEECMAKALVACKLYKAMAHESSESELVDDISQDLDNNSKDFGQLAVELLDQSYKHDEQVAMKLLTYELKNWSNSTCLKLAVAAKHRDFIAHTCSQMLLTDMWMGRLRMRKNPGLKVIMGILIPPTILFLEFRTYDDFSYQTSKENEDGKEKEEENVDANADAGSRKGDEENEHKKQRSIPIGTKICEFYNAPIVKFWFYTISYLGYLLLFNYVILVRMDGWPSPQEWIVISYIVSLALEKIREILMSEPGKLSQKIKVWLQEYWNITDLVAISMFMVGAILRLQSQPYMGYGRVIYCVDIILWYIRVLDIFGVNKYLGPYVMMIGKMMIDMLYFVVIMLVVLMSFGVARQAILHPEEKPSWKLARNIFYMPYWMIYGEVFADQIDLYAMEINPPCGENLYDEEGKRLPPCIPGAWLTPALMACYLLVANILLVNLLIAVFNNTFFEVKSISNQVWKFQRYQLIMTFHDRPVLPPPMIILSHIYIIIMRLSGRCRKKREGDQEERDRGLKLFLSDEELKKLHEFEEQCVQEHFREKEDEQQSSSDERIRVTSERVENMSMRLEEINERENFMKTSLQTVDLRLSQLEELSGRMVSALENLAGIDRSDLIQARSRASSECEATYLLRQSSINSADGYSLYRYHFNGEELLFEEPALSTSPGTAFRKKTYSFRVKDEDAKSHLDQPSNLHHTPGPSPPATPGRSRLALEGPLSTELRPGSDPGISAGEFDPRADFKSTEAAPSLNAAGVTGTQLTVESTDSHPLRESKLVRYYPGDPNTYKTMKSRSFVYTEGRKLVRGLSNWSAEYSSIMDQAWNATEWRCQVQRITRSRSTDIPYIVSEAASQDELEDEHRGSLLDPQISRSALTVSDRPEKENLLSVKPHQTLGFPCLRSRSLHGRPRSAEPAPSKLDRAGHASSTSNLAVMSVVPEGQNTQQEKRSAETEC
UniProt E9PY61, residues 28-2293: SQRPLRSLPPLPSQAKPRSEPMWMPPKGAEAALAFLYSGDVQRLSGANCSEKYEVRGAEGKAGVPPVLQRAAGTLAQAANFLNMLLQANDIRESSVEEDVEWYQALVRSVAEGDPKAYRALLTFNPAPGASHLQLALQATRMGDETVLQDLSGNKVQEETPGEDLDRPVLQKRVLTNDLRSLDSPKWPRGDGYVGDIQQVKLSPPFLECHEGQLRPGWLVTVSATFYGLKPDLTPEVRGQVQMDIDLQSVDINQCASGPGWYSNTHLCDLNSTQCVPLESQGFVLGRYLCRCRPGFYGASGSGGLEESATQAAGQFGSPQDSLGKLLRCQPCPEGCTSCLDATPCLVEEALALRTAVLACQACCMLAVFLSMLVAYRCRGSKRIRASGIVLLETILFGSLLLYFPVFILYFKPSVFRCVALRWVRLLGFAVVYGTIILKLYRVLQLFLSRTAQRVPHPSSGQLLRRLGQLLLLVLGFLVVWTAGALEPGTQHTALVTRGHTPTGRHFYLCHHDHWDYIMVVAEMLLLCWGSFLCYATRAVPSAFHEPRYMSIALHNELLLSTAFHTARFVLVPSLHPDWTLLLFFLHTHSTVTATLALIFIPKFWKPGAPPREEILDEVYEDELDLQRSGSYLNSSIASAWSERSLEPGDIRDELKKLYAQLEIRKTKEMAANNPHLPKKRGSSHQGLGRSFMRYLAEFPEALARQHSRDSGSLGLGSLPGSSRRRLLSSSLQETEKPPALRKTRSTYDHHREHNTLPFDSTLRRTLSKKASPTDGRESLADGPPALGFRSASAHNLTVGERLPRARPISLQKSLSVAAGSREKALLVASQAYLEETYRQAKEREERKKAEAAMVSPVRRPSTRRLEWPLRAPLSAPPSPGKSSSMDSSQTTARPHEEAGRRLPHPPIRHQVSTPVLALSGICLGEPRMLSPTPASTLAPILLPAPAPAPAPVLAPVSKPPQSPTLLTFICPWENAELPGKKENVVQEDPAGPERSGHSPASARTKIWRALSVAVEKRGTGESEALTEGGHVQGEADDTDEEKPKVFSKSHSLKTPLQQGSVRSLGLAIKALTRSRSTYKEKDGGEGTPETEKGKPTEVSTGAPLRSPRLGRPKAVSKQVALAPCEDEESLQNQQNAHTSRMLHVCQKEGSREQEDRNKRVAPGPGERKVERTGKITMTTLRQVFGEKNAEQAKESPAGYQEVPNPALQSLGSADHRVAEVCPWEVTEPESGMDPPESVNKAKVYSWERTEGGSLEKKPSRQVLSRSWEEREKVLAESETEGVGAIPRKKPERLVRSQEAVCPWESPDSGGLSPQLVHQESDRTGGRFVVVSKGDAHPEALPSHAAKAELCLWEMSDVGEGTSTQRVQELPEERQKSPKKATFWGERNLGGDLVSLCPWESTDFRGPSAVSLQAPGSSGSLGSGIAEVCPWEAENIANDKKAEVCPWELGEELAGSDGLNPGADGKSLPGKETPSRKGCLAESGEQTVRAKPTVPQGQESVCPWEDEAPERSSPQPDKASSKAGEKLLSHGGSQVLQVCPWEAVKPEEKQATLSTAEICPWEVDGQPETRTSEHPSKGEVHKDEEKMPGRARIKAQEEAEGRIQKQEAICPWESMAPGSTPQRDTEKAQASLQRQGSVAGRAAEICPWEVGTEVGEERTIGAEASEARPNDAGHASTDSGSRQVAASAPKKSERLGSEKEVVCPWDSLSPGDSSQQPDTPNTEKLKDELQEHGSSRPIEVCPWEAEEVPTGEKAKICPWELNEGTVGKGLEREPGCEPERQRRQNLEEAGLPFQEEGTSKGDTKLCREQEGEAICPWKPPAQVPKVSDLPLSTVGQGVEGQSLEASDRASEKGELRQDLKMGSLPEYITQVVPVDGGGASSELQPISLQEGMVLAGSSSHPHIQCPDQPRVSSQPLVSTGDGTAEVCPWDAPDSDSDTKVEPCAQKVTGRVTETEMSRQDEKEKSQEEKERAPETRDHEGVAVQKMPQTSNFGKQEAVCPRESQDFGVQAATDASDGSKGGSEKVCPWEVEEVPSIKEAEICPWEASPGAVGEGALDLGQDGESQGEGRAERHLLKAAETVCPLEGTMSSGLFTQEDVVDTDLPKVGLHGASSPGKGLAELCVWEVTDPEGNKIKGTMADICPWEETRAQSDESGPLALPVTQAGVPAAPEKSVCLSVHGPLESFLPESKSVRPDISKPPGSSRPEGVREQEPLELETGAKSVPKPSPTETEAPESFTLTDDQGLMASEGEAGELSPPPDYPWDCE

Target: TRPM1 (mouse (endogenous in mouse retina)) (UniProt Q2TV84)
Experiment: affinity purification with mass spectrometry

binding	Molecule
binds	GPR179 (from UniProt E9PY61 28-2293)
binds	LRFN2 (leucine rich repeat and fibronectin type III domain containing 2) (protein, UniProt Q80TG9 21-788) CPKYCVCQNLSESLGTLCPSKGLLFVPPDIDRRTVELRLGGNFIIHIGRQDFANMTGLVDLTLSRNTISHIQPFSFLDLESLRSLHLDSNRLPSLGEDTLRGLVNLQHLIVNNNQLGGIADDAFEDFLLTLEDLDLSYNNLHGLPWDSVRRMVNLHQLSLDHNLLDHIAEGTFADLQKLARLDLTSNRLQKLPPDPIFARSQASLLTATPFAPPLSFSFGGNPLHCNCELLWLRRLERDDDLETCGSPGSLKGRYFWHIREEEFVCEPPLITQHTHKLLVLEGQAATLKCKAIGDPSPLIHWVAPDDRLVGNSSRTAVYDNGTLDILITTSQDSGPFTCIAANAAGEATATVEVSIVQLPHLSNSTSRMAPPKSRLSDITGSSKTSRGGGGSGAGEPPKSTPERAVLVSDVTTTSALVKWSVSKSAPRVKMYQLQYNCSDDEVLIYRMIPASNKAFVVNNLVSGTGYDLCVLAMWDDTATTLTATNIVGCAQFFTKADYPQCQSMHSQILGGTMILVIGGIIVATLLVFIVILMVRYKVCNHDTPGKMAAATVSNVYSQTNGSQPPPLGGIPVGQLPQAPPKVVVRNELMDFSTSLARACDSSSSSSLGSGEAAGLGRGPWRLPPPAPRPKPSLDRLMGAFASLDLKSQRKEELLDSRTPAGRGAGTSSRGHHSDREPLLGPPATRARSLLPLPLEGKAKRSHSFDMGDFAAAAAAVPGGYSPPRRVSNIWTKRSLSVNGMLLPFEESDLVGARGTFGSSEWVMESTV
